Experimental data: PubChem BioAssay AID1671195 (Yale University, 2021)
This is one part, drawn at random, of about 22,000 deposited reagents. About 1,510 of all reagents (6.9%) were called active. 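Active includes knockdowns raising or lowering LDL uptake; positive z-scores mean more uptake, negative mean less.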 Reagent sequences are not shown.

- Purpose: 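Knockdowns that increase or decrease uptake of fluorescent LDL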 (primary screen)
- Cells: human Huh7 hepatoma cells
- Reagent: siRNA pool against human genes, 18 nM
- Time to read-out: about 2 to 2.5 days of knockdown, then 8 h LDL uptake
- Challenge: DiI-labelled LDL at 30 µg/ml for 8 h, in lipoprotein-deficient serum medium
- Read-out: 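Per-cell DiI-LDL intensity by automated imaging; well means scaled to the plate median and given as a robust z-score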
- Reading the numbers: robust z-score: higher = more LDL uptake after knockdown
- Rule for the call: 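Active when two or more replicates show a robust z-score above 2 or below -2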

Target gene	robust z-score, replicate 1	robust z-score, replicate 2	robust z-score, replicate 3	activity call
POLN (DNA polymerase nu)	3.53	2.64	3.39	active
F2RL3 (F2R like thrombin or trypsin receptor 3)	-1.1	-0.276	-1.18	inactive
TSSK1B (testis specific serine kinase 1B)	-0.774	-1.79	-1.8	inactive
LIG1 (DNA ligase 1)	0.954	0.71	-0.23	inactive
KMT2B (lysine methyltransferase 2B)	1.64	1.57	1.13	inactive
ST14 (ST14 transmembrane serine protease matriptase)	-1.73	-0.746	-1.71	inactive
SOX9-AS1 (SOX9 antisense RNA 1)	0.334	0.358	0.502	inactive
ZDHHC14 (zDHHC palmitoyltransferase 14)	0.724	0.858	0.67	inactive
SEC11A (SEC11 homolog A, signal peptidase complex subunit)	0.431	-0.398	0.438	inactive
AMBRA1 (autophagy and beclin 1 regulator 1)	0.709	-0.498	0.798	inactive
FCN1 (ficolin 1)	-0.147	-0.182	0.208	inactive
OSBP (oxysterol binding protein)	-1.49	-0.697	-0.81	inactive
SELENOI (selenoprotein I)	0.951	1.41	1.25	inactive
CHST13 (carbohydrate sulfotransferase 13)	0.146	-0.446	-0.303	inactive
LOC154761 (family with sequence similarity 115, member C pseudogene)	-0.255	0.0081	-0.111	inactive
INKA1 (inka box actin regulator 1)	0.394	-0.35	-0.354	inactive
SF3B3 (splicing factor 3b subunit 3)	-1.84	-1.54	-1.41	inactive
LOC389029 (retired record)	-0.718	-1.17	-1.05	inactive
SLC31A2	-0.286	-0.168	-0.89	inactive
FLJ45300 (retired record)	-2.36	-2.29	-2.36	active
RPL10AP4 (ribosomal protein L10a pseudogene 4)	0.418	-0.0301	-0.324	inactive
TYK2 (tyrosine kinase 2)	0.667	0.401	0.301	inactive
TRANK1 (tetratricopeptide repeat and ankyrin repeat containing 1)	-0.489	1.12	1.69	inactive
NEK7 (NIMA related kinase 7)	-0.847	-1.59	-1.32	inactive
PLOD3 (procollagen-lysine,2-oxoglutarate 5-dioxygenase 3)	0.527	0.369	0.582	inactive
NPAT (nuclear protein, coactivator of histone transcription)	0.138	-0.498	0.712	inactive
LPGAT1 (lysophosphatidylglycerol acyltransferase 1)	-0.646	0.946	-1.21	inactive
GLYCTK (glycerate kinase)	-0.314	0.078	0.2	inactive
LOC392582 (retired record)	-1.08	-0.131	-0.399	inactive
PAWR (pro-apoptotic WT1 regulator)	-0.28	-0.815	0.253	inactive
ZDHHC4 (zDHHC palmitoyltransferase 4)	0.47	2.05	1.31	inactive
APC (APC regulator of Wnt signaling pathway)	0.86	0.764	2.09	inactive
PSMA1 (proteasome 20S subunit alpha 1)	0.921	0.618	0.981	inactive
SLC39A11	0.248	0.0538	-0.783	inactive
ENTPD3 (ectonucleoside triphosphate diphosphohydrolase 3)	-0.00825	0.184	-0.898	inactive
ZNF623 (zinc finger protein 623)	-2.65	-2.58	-1.65	active
LOC389683 (retired record)	-1.41	-1.44	-1.56	inactive
MANSC1 (MANSC domain containing 1)	-1.05	1.18	-0.799	inactive
ISLR2 (immunoglobulin superfamily containing leucine rich repeat 2)	1.17	1.69	1.85	inactive
REXO1 (RNA exonuclease 1 homolog)	-1.21	-1.21	-0.714	inactive
PHF3 (PHD finger protein 3)	1.84	0.303	1.94	inactive
LINC02092 (long independently transcribed non-coding RNA 2092)	0.703	0.0375	0.476	inactive
HEXIM1 (HEXIM P-TEFb complex subunit 1)	0.692	-0.698	1.6	inactive
CCDC78 (coiled-coil domain containing 78)	-0.326	2.08	1.37	inactive
CDH11 (cadherin 11)	-0.221	0.421	0.409	inactive
RIPK4 (receptor interacting serine/threonine kinase 4)	0.716	0.556	0.746	inactive
PCMTD2	-0.968	-0.91	-1.17	inactive
ARHGAP44 (Rho GTPase activating protein 44)	1.6	1.81	3.02	inactive
MAX (MYC associated transcriptional regulator X)	-1.37	-1.55	-1.51	inactive
TEF (TEF transcription factor, PAR bZIP family member)	-0.415	0.731	1.1	inactive
CHRNB1 (cholinergic receptor nicotinic beta 1 subunit)	-1.83	-2.22	-1.66	inactive
KLHL12 (kelch like family member 12)	1.09	0.388	0.319	inactive
GRN (granulin precursor)	-0.0422	0.00428	0.326	inactive
PLEKHH1 (pleckstrin homology, MyTH4 and FERM domain containing H1)	0.708	-0.745	-0.222	inactive
PRKAA2 (protein kinase AMP-activated catalytic subunit alpha 2)	-0.0389	0.403	0.377	inactive
CFAP77 (cilia and flagella associated protein 77)	0.103	0.597	-0.217	inactive
PLEKHF1 (pleckstrin homology and FYVE domain containing 1)	-1.83	-1.66	-1.84	inactive
SLC35F1	-0.947	-0.219	-0.464	inactive
RPP25 (ribonuclease P/MRP subunit p25)	-0.967	-1.1	-0.155	inactive
LOC132706 (retired record)	-0.487	-1.03	-1.42	inactive
LGALS16 (galectin 16)	0.0763	0.944	0.538	inactive
HAUS6 (HAUS augmin like complex subunit 6)	-1.18	-0.821	0.43	inactive
TRA2B (transformer 2 beta homolog)	0.536	0.576	0.718	inactive
FBXL5 (F-box and leucine rich repeat protein 5)	0.983	-1.69	0.158	inactive
KCNN3 (potassium calcium-activated channel subfamily N member 3)	-1.91	-2.49	-1.97	active
HIP1R (huntingtin interacting protein 1 related)	-0.616	0.948	0.0396	inactive
POLR1C (RNA polymerase I and III subunit C)	0.567	0.639	0.217	inactive
E2F2 (E2F transcription factor 2)	1.32	1.33	1.32	inactive
